Results reported in PubChem BioAssay AID493014 (National Center for Advancing Translational Sciences (NCATS), 2011).
Among all 340,000 compounds or so, about 170 (0.05%) were called active. The shares of active, inactive and inconclusive entries below differ from those in the screen. Calls come from the whole dose curve; as a rule, active = well fitted inhibition curve with a large enough effect in the signal ratio, with a control signal flat (not every such curve was filed as active); inconclusive = small, poorly fitted or top-dose-only effect, or effect the other way, or a change in a side signal; inactive = flat fitted curve, though single readings scatter; the % refers to the signal ratio. Potencies of inconclusive entries are doubtful fits and often do not repeat.

Experiment: qHTS Assay to Find Inhibitors of Chronic Active B-Cell Receptor Signaling;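 for activity change, negative = inhibition: plate controls were basal doxycycline-induced cells for no effect and cells given 10 µM MG132 for full effect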
Settings: ABC-DLBCL IkBa-CBG/CBR reporter, luminescence ratio (green luciferase fused to IkBa over red control in TMD8 lymphoma cells), 4 h; activity change, negative = inhibition: at 46.1 µM (top of the series)
Method in brief: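 Cell line TMD8 (human ABC DLBCL), stably expressing tet-inducible CBG68-IkBa fusion and CBR; IMDM/0.5% FBS; cpd up to 46 uM; dox induction, 4 h, 37C/5% CO2; dual luminescence; green/red ratio; MG132 control.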
Potency is the fitted concentration of half-maximal effect.

Q: With `COc1cc(CNC(C)C)ccc1OCC(=O)Nc1cccc2ccccc12` as the molecule, how does the activity change, negative = inhibition read?
A: inconclusive: 2.95%

Q: With `Cc1ccc(-c2nnc(Nc3cccc(C(F)(F)F)c3)c3ccccc23)cc1S(=O)(=O)N1CCOCC1` as the molecule, how does the Potency read?
A: inconclusive: 0.891 µM [falling, full curve, poor fit]

Q: Which activity change, negative = inhibition does the source give for `O=C(Nc1ccnn1C1CCN(Cc2ccc(Cl)cc2)CC1)C1CCCC1` here?
A: inactive

Q: For `Cc1ccc(-n2c(SCC(N)=O)nc3c([nH]c4ccccc43)c2=O)cc1`, which activity change, negative = inhibition is on record?
A: inconclusive: -0.267%

Q: Which activity change, negative = inhibition does the source give for `Cc1ccc(Nc2nc(N3CCOCC3)c3ccccc3n2)cc1` here?
A: inconclusive: 5.19%

Q: With `COC(=O)c1sc(NC(=O)c2ccoc2C)nc1C` as the molecule, how does the Potency read?
A: inconclusive: 18.4 µM [falling, partial curve]

Q: With `Cc1cccc2cc3c(nc12)-c1ccccc1C3=O` as the molecule, how does the activity change, negative = inhibition read?
A: inconclusive: -0.501%

Q: With `Cc1oc(=O)c(NC(=O)c2ccc(Cl)cc2)cc1C(=O)c1ccccc1` as the molecule, how does the Potency read?
A: inconclusive: 35.5 µM [falling, single point]

Q: Which activity change, negative = inhibition does the source give for `O=C(C1CCN(S(=O)(=O)c2cccnc2)CC1)N1CCN(c2ccc(Cl)cc2)CC1` here?
A: inactive

Q: With `Cc1ccc2nc(SCC(=O)c3ccc(Cl)cc3)nc(=O)n2c1` as the molecule, how does the Potency read?
A: inconclusive: 1.16 µM [falling, partial curve, poor fit]

Q: Which Potency does the source give for `CCc1sc(N(C(=O)Cc2ccccc2)c2ccc(F)cc2)nc1-c1ccccc1` here?
A: inconclusive: 6.51 µM [falling, single point]

Q: With `CCOc1ccccc1NC(=O)COc1ccc(S(=O)(=O)N2CCCC2)cc1` as the molecule, how does the activity change, negative = inhibition read?
A: inconclusive: 6.53%

Q: Which activity change, negative = inhibition does the source give for `COc1cc(C(=O)Nc2nnc(C)s2)cc(OC)c1OC` here?
A: inactive

Q: Which activity change, negative = inhibition does the source give for `CCn1cnc2c1c(=O)n(Cc1nnc3n1-c1ccccc1SC3)c(=O)n2Cc1ccccc1` here?
A: inconclusive: 12%

Q: For `Cc1nn(Cc2ccccc2Cl)c(C)c1C(=O)N1CCN(c2ccccc2)CC1`, which activity change, negative = inhibition is on record?
A: inactive

Q: With `O=C(NNc1c(F)c(F)cc(F)c1F)c1ccco1` as the molecule, how does the activity change, negative = inhibition read?
A: inactive

Q: With `CN(C)CCCN(C(=O)c1ccc(S(=O)(=O)N(C)Cc2ccccc2)cc1)c1nc2cc3c(cc2s1)OCO3` as the molecule, how does the activity change, negative = inhibition read?
A: inactive

Q: Which Potency does the source give for `Cc1c(N)cc[n+](CC(=O)c2ccccc2)c1C` here?
A: inconclusive: 14.1 µM [falling, single point]

Q: With `CCCn1c(N/N=C\C=C\c2ccccc2)nc2c1c(=O)[nH]c(=O)n2C` as the molecule, how does the activity change, negative = inhibition read?
A: inconclusive: 10.9%

Q: With `COc1ccc(C2=CC(=O)C[C@H](c3ccc4c(c3)OCO4)C2)cc1` as the molecule, how does the activity change, negative = inhibition read?
A: inactive

Q: With `Cn1c(-c2ccccc2)cnc1SCc1nc2ccccc2c(=O)[nH]1` as the molecule, how does the activity change, negative = inhibition read?
A: inconclusive: 7.19%

Q: Which activity change, negative = inhibition does the source give for `O=C(CNC(=O)C(c1ccccc1)c1ccccc1)OCc1ccccc1` here?
A: inconclusive: 6.33%

Q: Which activity change, negative = inhibition does the source give for `COc1ccc(S(=O)(=O)N2CCC3(CC2)CC(=O)c2ccccc2O3)cc1` here?
A: inactive

Q: For `CCS(=O)(=O)N1CCN(C2Cc3ccccc3C2)CC1`, which activity change, negative = inhibition is on record?
A: inconclusive: 3.55%

Q: Which Potency does the source give for `Cc1c(OCC(=O)N2CCC(C(=O)O)CC2)ccc2c1oc(=O)c1ccccc12` here?
A: inconclusive: 3.55 µM [falling, partial curve]

Q: For `CCC1CCCCN1C(=O)CSc1nnc(-c2ccc(Cl)s2)o1` (stereo unspecified), which activity change, negative = inhibition is on record?
A: inactive

Q: Which activity change, negative = inhibition does the source give for `Nc1n[nH]c(N)c1N=Nc1cccc(F)c1` here?
A: inconclusive: -1.13%

Q: Which activity change, negative = inhibition does the source give for `CC1CCN(C(=O)COC(=O)/C=C/c2ccc([N+](=O)[O-])cc2)CC1` here?
A: inconclusive: 2.42%

Q: Which activity change, negative = inhibition does the source give for `COc1ccc(OC)c(NC(=O)C2CC(=O)N(Cc3ccco3)C2)c1` (stereo unspecified) here?
A: inactive

Q: For `Oc1ccccc1-n1nc2ccc3nonc3c2n1`, which activity change, negative = inhibition is on record?
A: inconclusive: -0.547%

Q: With `COc1cc2c(C(=O)N(C)c3ccc(F)cc3)cn(C)c(=O)c2cc1OC` as the molecule, how does the activity change, negative = inhibition read?
A: inconclusive: 3.09%

Q: For `Cn1nc(C(F)(F)F)c(/C=N/OC(=O)c2ccccc2)c1Sc1ccc(Cl)cc1`, which Potency is on record?
A: inconclusive: 2.59 µM [falling, full curve, poor fit]

Q: With `O=C(COC(=O)C1=COCCO1)Nc1cc(S(=O)(=O)N2CCCCC2)ccc1Cl` as the molecule, how does the Potency read?
A: inconclusive: 15.8 µM [falling, partial curve]

Q: For `Cc1ccsc1/C=C(\C#N)C(=O)NC1CCS(=O)(=O)C1` (stereo unspecified), which activity change, negative = inhibition is on record?
A: inconclusive: 4.16%

Q: With `CCCCN1CC(=O)N2[C@H]3c4cc(Cl)ccc4OC[C@@H]3[C@H](c3ccccc3)[C@]2(C)C1=O` as the molecule, how does the activity change, negative = inhibition read?
A: inconclusive: 3.65%

Q: For `COc1ccc(/C=C/C(=O)OCC(=O)Nc2cc(S(=O)(=O)N(C)C)ccc2Cl)cc1`, which activity change, negative = inhibition is on record?
A: inactive

Q: With `CC(=O)Nc1ccc(CNc2ncnc3ccc(-c4c(C)noc4C)cc23)cc1` as the molecule, how does the activity change, negative = inhibition read?
A: inconclusive: 3%

Q: Which Potency does the source give for `O=C(c1ccccc1)c1ccc(-c2ccc(O)cc2)cc1` here?
A: inconclusive: 35.5 µM [falling, partial curve, poor fit]

Q: For `O=C(NNC(=O)c1cccc(C(F)(F)F)c1)c1ccncc1`, which activity change, negative = inhibition is on record?
A: inconclusive: -17.3%

Q: For `CCCCc1c(O)nc(SCC(=O)c2ccccc2)[nH]c1=O`, which activity change, negative = inhibition is on record?
A: inconclusive: 5.77%

Q: Which activity change, negative = inhibition does the source give for `COc1ccc(N2CCN(c3cc(=O)n(Cc4ccc(F)cc4)c(=O)[nH]3)CC2)cc1` here?
A: inconclusive: 6.2%

Q: Which Potency does the source give for `c1ccc2c(C3=NNC(=NC4CCCCC4)SC3)c[nH]c2c1` here?
A: inconclusive: 8.2 µM [falling, partial curve]

Q: Which activity change, negative = inhibition does the source give for `COCC(=O)n1nc(-c2ccc(C)cc2)nc1NCc1ccc(F)cc1` here?
A: inconclusive: 7.06%

Q: With `Cc1nc(-c2ccc(Cl)cc2)sc1C1(C)CC(c2c(Cl)cccc2Cl)=NO1` (stereo unspecified) as the molecule, how does the activity change, negative = inhibition read?
A: inconclusive: 4.68%

Q: Which activity change, negative = inhibition does the source give for `CN(CC(=O)Nc1ccccc1Cl)CC(=O)Nc1c(F)cccc1F` here?
A: inconclusive: -13.9%

Q: For `O=c1cc(N2CCOCC2)[nH]c(=O)n1Cc1ccc(F)cc1`, which activity change, negative = inhibition is on record?
A: inconclusive: -0.234%

Q: With `Cc1cc(NC(=O)CSc2nc(CCC3CCCC3)nc3ccccc23)no1` as the molecule, how does the Potency read?
A: inconclusive: 11.6 µM [falling, partial curve]

Q: Which Potency does the source give for `CCOC(=O)C1CCN(C(=O)COc2cc(C)c(Br)c(C)c2)CC1` here?
A: inconclusive: 3.98 µM [rising, partial curve, poor fit]

Q: For `CCOc1ccccc1N(CC(=O)Nc1ccc(OC)c(Cl)c1)S(=O)(=O)c1ccccc1`, which Potency is on record?
A: inconclusive: 0.398 µM [rising, full curve, poor fit]

Q: Which activity change, negative = inhibition does the source give for `C=CCn1c(C)csc1=Nc1ccc(C(C)=O)cc1` here?
A: inconclusive: -4.72%

Q: Which activity change, negative = inhibition does the source give for `COc1ccc(C2C(CC(=O)O)=C(O)C(=O)N2c2ccccc2)cc1` (stereo unspecified) here?
A: inconclusive: -17.1%
